This test in a line: qHTS Assay to Find Inhibitors of Chronic Active B-Cell Receptor Signaling. The settings on record: ABC-DLBCL IkBa-CBG/CBR reporter, luminescence ratio (green luciferase fused to IkBa over red control in TMD8 lymphoma cells), 4 h. An outline of the steps:
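Compounds up to 46 uM were incubated four hours with TMD8 cells whose green CBG68 luciferase is fused to IkappaBalpha; red CBR luminescence normalised the signal, and concentration-effect curves were fitted to fusion, red and ratio data.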
For orientation: In qHTS, concentration-response curves come from the screen itself.

Setting [1] is: measured here: CBR red luminescence, cell number.
The mark [2] stands for this setting: measured here: IkBa-CBG green luminescence.

This is one part of the list. The main result of the screen is listed elsewhere. These columns were measured beside it and carry no call. The list favours compounds with an active or inconclusive main result. Words in brackets tell the shape of the fitted curve; partial curves, single points and poor fits give uncertain potencies.

For orientation: AC50 means the concentration giving half of the maximal activity seen. As for `CCCCN(CC)Cc1c(O)ccc2c3c(c(=O)oc12)CCC3`, the AC50 under setting [1] is 12.6 µM [rising, partial curve, poor fit].

For the compound `COc1ccc(C(C)(C)C)cc1NC(=O)COC(=O)c1nc2nccc(C)n2n1`, under setting [1], the AC50 was 0.92 µM [rising, full curve, poor fit].

Take `COc1ccc(CCNc2ncnc3[nH]ncc23)cc1OC`: the AC50 under setting [1] is 5.8 µM [falling, full curve, poor fit].

For `CCc1nc2ccc(C(=O)NCc3ccco3)cc2nc1CC`, the AC50 under setting [1] was 14.6 µM [falling, partial curve, poor fit].

On to `Clc1ccc(N=c2ssnc2Cl)nc1`, for which the AC50 under setting [1] is 11.2 µM [rising, partial curve].

As to `CC(=O)COc1cccc2ccc(/C=C/c3ccc(Br)s3)nc12`, the AC50 under setting [1] is 0.794 µM [falling, full curve] and the AC50 under setting [2] was 10 µM [falling, partial curve, poor fit].

For the compound `Cc1ccc(C(=O)CNc2cccc(Cl)c2)cc1`, the AC50 under setting [1] was 0.146 µM [rising, full curve].

As for `CCN(CC)C(=O)C(=O)Nc1cccc(Br)c1`, the AC50 under setting [1] is 35.5 µM [falling, single point].

For `CCN(CC)C(=O)Oc1ccc2ccccc2c1Br`, the AC50 under setting [1] is 17.8 µM [rising, partial curve, poor fit].

Turning to `O=C(c1ccc2oc(CCCc3ccccc3)nc2c1)N1CCCC1`, under setting [1], the AC50 is 22.4 µM [falling, partial curve, poor fit].

For the compound `CC(C)(C)NC(=O)NC(=O)CSc1ccc(S(=O)(=O)N2CCCCC2)cn1`, the concentration at half-maximal activity (AC50) under setting [1] is 4.11 µM [falling, partial curve, poor fit].

Turning to `O=C(CSc1nnc(CNc2ccccc2)o1)c1ccc2c(c1)OCCO2`, the AC50 by setting is: under setting [1], 20.6 µM [falling, single point]; under setting [2], 23.1 µM [rising, single point].

For the compound `COc1ccc(/C=N/n2cnc3c([nH]c4ccccc43)c2=O)cc1COc1ccccn1`, under setting [1], the AC50 was 3.16 µM [rising, single point].

As to `CCCCc1c(C)[nH]c(C(=O)OCC)c1C`, the AC50 reads like this: under setting [1], 12.6 µM [rising, partial curve]; under setting [2], 12.6 µM [falling, single point].

Regarding `Oc1c(C(c2ccccc2)N2CCC(O)CC2)sc2nc(-c3ccco3)nn12` (stereo not given), the AC50 under setting [1] was 12.6 µM [rising, partial curve, poor fit].

As for `Nc1ccccc1Nc1cc(-c2ccccc2)[nH]n1`, the AC50 under setting [1] is 3.55 µM [falling, full curve, poor fit].

On to `CCOC(=O)C(Sc1cc(-c2ccccc2)nc2ncnn12)C(C)=O` (stereo not given), for which, under setting [1], the AC50 is 3.98 µM [rising, full curve, poor fit].

`CC1CN(C2CCN(C(=O)c3cccc(Cl)c3)CC2)CC(C)O1` (stereo not given): the AC50 under setting [1] is 0.631 µM [falling, full curve, poor fit].

Take `Cc1nc(CS(=O)(=O)c2ccc(Cl)cc2)sc1C(=O)O`: the AC50 under setting [1] was 0.447 µM [falling, full curve, poor fit].

On to `Cc1ccc(NNC(=O)C(O)(c2cccc(C(F)(F)F)c2)c2cccc(C(F)(F)F)c2)cc1`, for which the AC50 under setting [1] was 23.1 µM [falling, partial curve].

On to `COC(=O)c1ccc(NC(=O)c2cccc(N3C(=O)CCC3=O)c2)cc1`, for which the AC50 under setting [1] was 8.2 µM [falling, partial curve].

In the case of `O[C@@H](c1cc(C(F)(F)F)nc2c(C(F)(F)F)cccc12)[C@H]1CCCCN1`, the AC50 under setting [1] was 2.59 µM [falling, partial curve].

As to `CN(C)C(=O)c1ccc(Nc2ncnc3sc4c(c23)CCCCC4)cc1`, under setting [1], the half-maximal activity concentration (AC50) is 1.58 µM [rising, partial curve, poor fit].

In the case of `N#C/C(=C/c1ccc2c(c1)OCO2)C(=O)NCCc1c[nH]c2ccccc12`, the AC50 under setting [1] is 25.9 µM [falling, partial curve, poor fit].

Consider `COC(=O)C(NC(=O)c1ccccc1)(Nc1cc(C)cc(C)n1)C(F)(F)F` (stereo not given), for which the AC50 under setting [1] is 11.6 µM [rising, partial curve, poor fit].

On to `CN1CCN(CCCNC(=O)c2ccc(/C=C3\Sc4ccccc4N(Cc4ccc(F)cc4)C3=O)cc2)CC1`, for which the AC50 under setting [1] was 35.5 µM [falling, single point].

As to `COc1cc(OC)cc(C(=O)Nc2ccc(-n3cnnn3)c(C)c2)c1`, the AC50 under setting [1] was 7.08 µM [falling, partial curve, poor fit].

As to `S=C(NN=C1C2CC3CC(C2)CC1C3)Nc1ccccc1`, the AC50 under setting [1] was 8.2 µM [falling, single point].

For `O=c1c2ccccc2nnn1CSc1nnc(C2COc3ccccc3O2)n1-c1ccccc1` (stereo not given), the AC50 under setting [1] is 12.6 µM [falling, partial curve, poor fit].

On to `CCCN(CC(=O)Nc1ccccc1C)C(=O)c1ccc(-c2ccccc2)cc1`, for which the AC50 under setting [1] was 35.5 µM [falling, partial curve, poor fit].

Regarding `Oc1ccc(-c2csc(Nc3ccccn3)n2)cc1O`, the AC50 under setting [1] is 20 µM [falling, single point].

As for `COc1cc(NS(=O)(=O)c2ccc3c(c2)n(C)c(=O)n3C)cc(OC)c1`, the AC50 under setting [1] was 5.8 µM [rising, partial curve, poor fit].

Regarding `C/C(=C/c1ccccc1)C(=O)N1CCN(c2ccc(F)cc2)CC1`, under setting [1], the AC50 is 0.355 µM [rising, full curve].

In the case of `Cc1ccc(S(=O)(=O)NNC(=O)C2Cc3c(ccc4ccccc34)O2)cc1` (stereo not given), the AC50 under setting [1] is 8.91 µM [falling, partial curve, poor fit].

`CC(=O)Nc1cc2c(cc1C(C)=O)OCCO2`: the AC50 under setting [1] is 14.6 µM [falling, single point].

Consider `CC(=O)Nc1nc(C)c(-c2csc(Nc3cccc(C(C)=O)c3)n2)s1`, for which the AC50 under setting [1] was 0.631 µM [falling, full curve, poor fit].

For the compound `Cc1nc2c(=O)oc3ccccc3c2n1-c1ccccc1`, under setting [1], the AC50 was 0.082 µM [rising, full curve, poor fit].

For `Cc1c(NC(=O)CSc2nnnn2-c2ccc(F)cc2)c(=O)n(-c2ccccc2)n1C`, the AC50 under setting [1] was 25.1 µM [rising, single point].

Take `CNC(=O)c1cccc2nc3ccccc3nc12`: the AC50 under setting [1] was 0.501 µM [falling, full curve, poor fit].

Take `CCOC(=O)C1=C(C)OC(N)=C(C#N)C1c1cc2ccccc2nc1N1CCCCC1` (stereo not given): under setting [1], the AC50 was 35.5 µM [falling, single point].

`CC(C)(C)OC(=O)C[C@@H]1C/C=C\C[C@H](CC(=O)N(CCO)Cc2ccccc2)C(=O)N2CCC[C@@H]2COC1=O`: under setting [1], the AC50 is 0.00411 µM [rising, full curve, poor fit].

With `COc1ccc(/C=C/C(=O)NCCc2c[nH]c3ccccc23)cc1OC`, the AC50 under setting [1] is 25.1 µM [falling, single point].

Regarding `O=C(O)c1cccc(NC(=S)N/N=C/c2cccnc2)c1`, the AC50 under setting [1] is 11.2 µM [falling, partial curve].

On to `CCOC(=O)Cc1csc(NC(=O)c2cccs2)n1`, for which the AC50 under setting [1] is 10 µM [falling, partial curve, poor fit].

Take `Cc1onc(-c2c(F)cccc2Cl)c1C(=O)OCn1nnc2ccccc2c1=O`: the half-maximal activity concentration (AC50) under setting [1] was 29.1 µM [falling, single point].

Turning to `Cc1cc(N2CCN(Cc3cn(C)nc3-c3cccc(Cl)c3)CC2)cc(C)n1`, under setting [1], the AC50 was 8.91 µM [falling, partial curve, poor fit].

In the case of `CCCC(=O)Nc1cccc(NC(=O)c2ccc3c(c2)OCCO3)c1`, the AC50 under setting [1] is 1.16 µM [falling, full curve].

Take `CC(=O)Nc1ccccc1NC(=O)C/C(C)=N/NC(=O)c1ccccn1`: the AC50 under setting [1] is 3.98 µM [falling, full curve].

For the compound `O=C(Nc1cccnc1)c1cc(-c2ccccc2O)on1`, the AC50 under setting [1] is 0.251 µM [falling, full curve].

With `Cc1c(C#N)c(N=CN(C)C)c(C(=O)c2ccc(Br)cc2)n1-c1ccc(Cl)cc1`, the AC50 under setting [1] is 23.1 µM [rising, single point].

Turning to `CCC(=O)Nc1cc(-c2nn(C)c(=O)c3ccccc23)ccc1N1CCOCC1`, the AC50 under setting [1] is 0.0058 µM [rising, full curve, poor fit].

In the case of `CC1Oc2ccccc2C=C1/C=N/NC(=O)c1ccccc1` (stereo not given), the AC50 under setting [1] was 20.6 µM [falling, partial curve].

For `Cc1cccc([C@@H]2[C@@H]3C(=O)N(Cc4ccccc4)C(=O)[C@@H]3[C@]3(Cc4ccccc4)C(=O)N(c4cccc(Cl)c4)C(=O)N23)c1`, the AC50 under setting [1] is 1.84 µM [falling, full curve].

As to `O=C(NN=Cc1ccc(OC(F)F)cc1)c1ccc(NS(=O)(=O)c2cccs2)cc1`, the AC50 under setting [1] is 4.61 µM [falling, partial curve, poor fit].

On to `CCOC(=O)C1=C(C)N=c2s/c(=C/c3cccc(OCC(=O)O)c3)c(=O)n2C1c1ccc(F)cc1` (stereo not given), for which, under setting [1], the AC50 was 3.98 µM [falling, full curve, poor fit].

`Cn1ccnc1SCC(=O)Nc1cccc([N+](=O)[O-])c1`: the AC50 under setting [1] is 14.1 µM [rising, partial curve, poor fit].

`CCc1cccc(C)c1N1C(=O)CN(Cc2ccccc2)C1=S`: the AC50 under setting [1] was 10 µM [rising, partial curve, poor fit].

As to `COc1ccc(C/C(N)=N/OC(=O)CCc2ccccc2)cc1`, the concentration at half-maximal activity (AC50) under setting [1] was 0.891 µM [rising, full curve, poor fit].

For `Cc1cc(Cl)ccc1OCCCC(=O)NCCN1C(=O)S/C(=C\c2cccnc2)C1=O`, the AC50 under setting [1] was 29.1 µM [falling, single point].

Turning to `O=c1oc2ccccc2cc1-c1csc(NN=C2CCCC2)n1`, the AC50 under setting [1] is 3.26 µM [rising, single point].

Take `Cc1ccc(CC(=O)NCCCc2ccccc2)cc1`: the AC50 under setting [1] is 14.6 µM [rising, partial curve, poor fit].

For `O=C(NCCO)c1nc(C(=O)c2ccccc2)c2ccccc2n1`, under setting [1], the AC50 was 2.91 µM [rising, full curve, poor fit].

(Values after PubChem BioAssay AID493014 (National Center for Advancing Translational Sciences (NCATS), 2011).)
